Laboratory results: publication PMC7819943, “Rice protein-binding microarrays: a tool to detect cis-acting elements near promoter regions in rice”
This is one part of the list.

The chains behind the UniProt entries cited, without tags or fusion partners.
UniProt Q0JBA9, entry or part of it: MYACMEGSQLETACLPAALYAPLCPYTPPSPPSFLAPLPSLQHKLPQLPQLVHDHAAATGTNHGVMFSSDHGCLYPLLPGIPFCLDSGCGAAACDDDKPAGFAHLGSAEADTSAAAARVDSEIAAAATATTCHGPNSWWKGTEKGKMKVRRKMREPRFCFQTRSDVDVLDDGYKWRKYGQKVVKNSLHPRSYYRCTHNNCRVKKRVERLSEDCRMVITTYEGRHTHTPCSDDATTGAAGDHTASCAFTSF

biological target: OsWRKY34 (Oryza sativa, UniProt Q0JBA9 1-250); test: protein-binding microarray (RPBM); PBS, 2% BSA, 51.3 ng/ul salmon testes DNA, 50 uM zinc acetate, 200 nM TF, 25 C, 1 h; high values mean tight binding; conditions: protein: recombinant; tags: N-terminal polyhistidine and DsRed monomer fusion (pET32a); label: CyDye5-dUTP incorporated in the synthesized complementary strand; 3' TTTTT single-stranded linker to array surface; dsDNA, one strand shown
Outline: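 The binding signal is fluorescence intensity per array feature (arbitrary units). Readings came from an Axon 4000B scanner after a washed, 2% BSA-blocked, double-stranded custom Agilent array had been incubated for 1 h at 25 °C with 200 nM protein and 50 µM zinc acetate. The protein was a Ni–NTA-purified transcription factor fused N-terminally to polyhistidine and DsRed, expressed in E. coli BL21-CodonPlus.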

Sequence | binding signal
GGGAAACAGCTCCGCGCCCGCGCGCCAAACTTGCTCCAAACGGAGTCACCTAGTGCAG | 8810 fluorescence intensity (a.u.)
TCTGATTATTTTCGTTCTTTTTTTTTTCGCATCCGCTTTTCGGAGTCACCTAGTGCAG | 9840 fluorescence intensity (a.u.)
GAGGAGGTGGTGGTGGAGGAGGACGAGGAGGTGGTTGTCGCGGAGTCACCTAGTGCAG | 8490 fluorescence intensity (a.u.)
CCTTTCCACTGAGAATTGCCCAGGGAAGAGATATCTGTAACGGAGTCACCTAGTGCAG | 8330 fluorescence intensity (a.u.)
AATTTTCGGGTGAAATAGTATCATTTTGGGGTTTAAAATTCGGAGTCACCTAGTGCAG | 8370 fluorescence intensity (a.u.)
ATCTTGTTTGGAGTTAATTTGGAGTACTATATTTTTTTTTCGGAGTCACCTAGTGCAG | 8230 fluorescence intensity (a.u.)
ATCTCCAAAATCAGTTTAACATCGCCTAATCCACGTCGGTCGGAGTCACCTAGTGCAG | 8820 fluorescence intensity (a.u.)
TTTTTGACTTTACCAAAAATGATCAGTTGCTTTTTTTTTTCGGAGTCACCTAGTGCAG | 9200 fluorescence intensity (a.u.)
GTCGCTTCACCACAAGCACCATCGTTATCTATTGCCGTATCGGAGTCACCTAGTGCAG | 11800 fluorescence intensity (a.u.)
TAGGGTTTTTTTCATCGAAGTTTATTTTTCAGTCTTTGACCGGAGTCACCTAGTGCAG | 10100 fluorescence intensity (a.u.)
ATTAATCTAATCTCCTCGTCGATGTGATCTTACGGCCAATCGGAGTCACCTAGTGCAG | 9180 fluorescence intensity (a.u.)
ATGATGGCTTGGCGGTATAGTTTCAGTAATCTGAAAATCACGGAGTCACCTAGTGCAG | 8260 fluorescence intensity (a.u.)
GTTTTTTTGTCCTGTGGTTCTTGCAATTGCAGGCCTGATGCGGAGTCACCTAGTGCAG | 8540 fluorescence intensity (a.u.)
TTTCTGTGTCCAACGTTTGACCGTCCGTCTTATTTGAATTCGGAGTCACCTAGTGCAG | 9790 fluorescence intensity (a.u.)
TTTTTTTCACTCCATAATAATAGGTTGCATTTGTCTTTTTCGGAGTCACCTAGTGCAG | 10700 fluorescence intensity (a.u.)
TGTGGCGTGCGTCGCATGGTGGAGGGAGGGACAGAGATGTCGGAGTCACCTAGTGCAG | 8480 fluorescence intensity (a.u.)
GGCTGAACCAATCTATCCCCGTGCTCGCTGTGAGGCCATTCGGAGTCACCTAGTGCAG | 8620 fluorescence intensity (a.u.)
ACGTCCAAATCACATTATATCAGTTCCTGTTTGTAACCGCCGGAGTCACCTAGTGCAG | 8550 fluorescence intensity (a.u.)
TTGGAGGCGCCGCGGCCGATACAGGGCGGGGTGCGGTTAGCGGAGTCACCTAGTGCAG | 9550 fluorescence intensity (a.u.)
TATATATATGGTCCTTCGTGTACATGTTTCCCTGATTTTCCGGAGTCACCTAGTGCAG | 10700 fluorescence intensity (a.u.)
AATCCCAATTGCTTATTCTCCTTCGACAAGCCGGCCACCGCGGAGTCACCTAGTGCAG | 8740 fluorescence intensity (a.u.)

Exported with each value named: entries from further up.
TAGGGTTTTTTTCATCGAAGTTTATTTTTCAGTCTTTGACCGGAGTCACCTAGTGCAG
  binding signal = 10100 fluorescence intensity (a.u.)
ATTAATCTAATCTCCTCGTCGATGTGATCTTACGGCCAATCGGAGTCACCTAGTGCAG
  binding signal = 9180 fluorescence intensity (a.u.)

(next part)

Sequence | binding signal
GACGCGGCCGCCTCCCCTACCCCGCGCCACGCCAATCCATCGGAGTCACCTAGTGCAG | 8610 fluorescence intensity (a.u.)
CGGCCTGTTCCCAACGCTGTTCAGTATGGCAGTCACCCTTCGGAGTCACCTAGTGCAG | 10000 fluorescence intensity (a.u.)
TTCCACTCTCACCGGCCACCGCGCGCTCTCTCTCTCTCTCCGGAGTCACCTAGTGCAG | 8140 fluorescence intensity (a.u.)
GGGTGCTGGGGCTTTGGCTGCCTTGACTTGGATTGCCTTCCGGAGTCACCTAGTGCAG | 8640 fluorescence intensity (a.u.)
TGGTCCGTGGCAGCTACGGCGGCGAGGTGGGGAGGAGACACGGAGTCACCTAGTGCAG | 9310 fluorescence intensity (a.u.)
GAATGTTGGTGGTTGGTTATGTGTGTACAAATCCAAATTACGGAGTCACCTAGTGCAG | 8060 fluorescence intensity (a.u.)
TGGTCAGGCGGCATGTGATCGAGGCCGGTTTTGGTTTGACCGGAGTCACCTAGTGCAG | 8950 fluorescence intensity (a.u.)
AACCATGCATCCACATGGACCTACCTAACCCAACCGGACGCGGAGTCACCTAGTGCAG | 8520 fluorescence intensity (a.u.)
CTGATTTTCATTTGAGAACAAAGTTTCTACGCATATTACCCGGAGTCACCTAGTGCAG | 8240 fluorescence intensity (a.u.)
GCCTATGATTTGGTTATACTTCAGTTCAGAGTGTCTCGATCGGAGTCACCTAGTGCAG | 9880 fluorescence intensity (a.u.)
CAGCGAGATTAAGGGACAGTAACTCCCACTGCTAAGCAAGCGGAGTCACCTAGTGCAG | 11400 fluorescence intensity (a.u.)
CTTTCCTACACACATAAACTTCCAACTTTTCCATCACATCCGGAGTCACCTAGTGCAG | 11400 fluorescence intensity (a.u.)
CTTCTGGAGGCGCGCTGCTCTTCGCGGCATCTCAATTCCCCGGAGTCACCTAGTGCAG | 8560 fluorescence intensity (a.u.)
TATACATTTGTATCAGTCGTCATACCCTGCATTCCTTAAACGGAGTCACCTAGTGCAG | 8090 fluorescence intensity (a.u.)
GCTTGTCGTGCTCACACACCCAGCTAGCCTTTTTTCCTCCCGGAGTCACCTAGTGCAG | 8390 fluorescence intensity (a.u.)
ACCTGCTATGTAACTTATATTATTTAACTGGTAATTGGTCCGGAGTCACCTAGTGCAG | 8940 fluorescence intensity (a.u.)
TATGTGGTTCTTCGTCATCACACGTTCAGTTCTATCCAAACGGAGTCACCTAGTGCAG | 9940 fluorescence intensity (a.u.)
GGCTGAGTTTTCTGTGTGTTGGCATCTTGCAACTGTCGAGCGGAGTCACCTAGTGCAG | 10000 fluorescence intensity (a.u.)
GAGCTAGCTAGTGTCCTCCTGCATCGCCCCGTCCACCACCCGGAGTCACCTAGTGCAG | 8360 fluorescence intensity (a.u.)
AACAATCCAGTAGCAACATGGTTAATCTCAATCATTTTTTCGGAGTCACCTAGTGCAG | 8390 fluorescence intensity (a.u.)
ATTTCTTTCTTTACATCGTCTCTTTCTTGATTTCCCAATCCGGAGTCACCTAGTGCAG | 10200 fluorescence intensity (a.u.)
